Assay results published in article PMC8860610.

Tests used:
[1] = molecular target: T1, peptide 6 of the Tof1_C peptide library (Tof1 aa 1001-1022) (Saccharomyces cerevisiae) (UniProt P53840); assay: pull-down; desthiobiotin-tagged Tof1_C peptides immobilised on streptavidin Dynabeads M-280, buffer M (25 mM HEPES-NaOH pH 7.6, 50 mM NaCl, 0.02% NP-40), prey (S_N, Top1) 1 h, eluted with 5 mM biotin, SDS-PAGE; both purified
T1 sequence (peptide, desthiobiotin linker): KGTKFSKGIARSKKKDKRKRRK

[2] = molecular target: T2, GST-tagged Tof1_C (938-1238 aa) (Saccharomyces cerevisiae) (UniProt P53840); assay: pull-down; 1.5 μM GST fusion proteins (Tof1_N, Tof1_M, Tof1_C, Csm3) as bait on glutathione agarose, 3 μM fl FACT or FACT truncations as prey, 90 min at 4°C, washed with buffer G (300 mM NaCl), eluted with glutathione, SDS-PAGE; both purified
T2 sequence: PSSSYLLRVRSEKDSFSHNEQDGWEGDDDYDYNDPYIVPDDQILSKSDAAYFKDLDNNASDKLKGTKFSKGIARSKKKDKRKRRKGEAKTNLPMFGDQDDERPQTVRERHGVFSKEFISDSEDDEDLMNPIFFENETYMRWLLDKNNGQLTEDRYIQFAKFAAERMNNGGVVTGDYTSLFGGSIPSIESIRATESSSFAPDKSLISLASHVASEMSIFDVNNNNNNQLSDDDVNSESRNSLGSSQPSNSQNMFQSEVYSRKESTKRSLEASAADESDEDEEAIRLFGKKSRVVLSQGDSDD

## N-domain of Spt16 (S_N) (Saccharomyces cerevisiae) (domain or fragment)
[1]
  binding: binds
[2]
  binding: binds

Results are given in words; binding and its absence hold for the method and conditions named. Binding calls can cover weak binding; strength is not graded here. Sequences can lack the tags named with a protein.
